## Library screening results

Measurements from “University of Dundee, Small-Polar-MMV Screening Library” (2021), ChEMBL document CHEMBL3988442.

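Viability assay of Plasmodium falciparum sporozoites; the read-out is not stated. The concentration is filed as 10 mM, unlikely as a test dose, so the dose is not known. The record gives no direction; compounds that gave an IC50 in retests scored well above the rest, so higher reads as lower viability. Strong results were mostly tested again. Size under these conditions: about 34,000 compounds, about 280 of them at 50% or above in at least one test.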

Values are the deposited “Percent Effect”, in %.
The controls that fix the scale are not given in the record; negative values are as filed.
The compounds are a random part of those screened.

- [H][C@@]12CCN(C(=O)c3ccsc3)C[C@@]1([H])O[C@H](c1noc(C)n1)C2 | -9.246%
- CC(=O)N1N=C(c2ccco2)OC1C(=O)N(C)CCc1ccccc1 (configuration not stated) | -6.727%
- Cc1cccn2c(NC(C)(C)C)c(C3CCN(C(=O)C4CC4)CC3)nc12 | -10.83%
- Cc1cnc(NC(=O)N2CCCC2)s1 | -3.691%
- O=C(O)C(F)(F)F.[H][C@@]12CN(C(=O)c3ccco3)C[C@]1([H])C(=O)N(Cc1csc(C)n1)C2 | 7.407%
- Cc1c(I)cccc1C(=O)NCC1(CO)CC1 | 11.65%
- c1ccc(-n2nnnc2CNCC2CCCN2c2cccnn2)cc1 (configuration not stated) | 0.2693%
- Cc1nn(C)c(C)c1C1CCCN1C(=O)c1ccnc(N(C)C)c1 (configuration not stated) | 0.5102%
- O=c1c(NCCNCCO)c(N2CCN(c3ccc(F)cc3)CC2)c1=O | -1.907%
- COc1cccc(CN2CCCC2Cn2nc(C)nc2C)c1 (configuration not stated) | 11.88%
- CCc1c(C)noc1-c1cnc(NC2CC2)nc1-c1cnc(C)cn1 | 14.62%
- CN1CCCC(Cc2cncc(C(=O)NC3CC3)c2)C1 (configuration not stated) | 11.19%
- O=C1CCC2(CCN(Cc3cc(F)cc(F)c3)CC2)CN1CCO | -1.12%
- CN(Cc1ccsc1)C(=O)c1cccc(S(=O)(=O)NC(C)(C)C)c1 | 7.85%
- O=C(O)C(F)(F)F.[H][C@]12CCN(C(=O)Cc3cccc(OC)c3)CC[C@@]1([H])S(=O)(=O)CCN2C | -9.675%
- [H][C@]12CCC(=O)N(c3cccnc3)[C@@]1([H])CCN2C(=O)c1cccs1 | -14.5%
- O=C(O)C(F)(F)F.O=C(c1cscn1)N1CCCC2(CCN2Cc2cccc(F)c2)C1 (configuration not stated) | 11.73%
- Cc1cc(C(=O)N(C)CC(F)(F)C(F)(F)F)ccc1-n1cncn1 | -2.113%
- CCN1CCC12CCN(C(=O)c1cc(C)on1)C2.O=C(O)C(F)(F)F (configuration not stated) | 3.764%
- O=C(CC1CCCC1)N1CCCC1c1nc(O)cc(-c2ccccn2)n1 (configuration not stated) | -8.412%
- NC(=O)c1cnc(-c2ccccc2)nc1CCNC(=O)CN1CCCC1 | -2.238%
- C[C@]1(O)CN(Cc2ncc[nH]2)CC[C@@H]1Oc1cccc(F)c1 | -1.841%
- Cc1cc(C)n(CC2CCCN2CC(=O)Nc2cc(C(C)C)no2)n1 (configuration not stated) | 6.373%
- CCn1cc(-c2cc(C(F)F)n3nc(CCC(=O)O)nc3n2)cn1 | 4.115%
- [H][C@@]12CCN(Cc3c(C)noc3C)[C@]1([H])CC[C@H](c1nnc(C)o1)O2 | 4.437%
- [H][C@]12CN(Cc3ccccc3Cl)C[C@]1([H])N(CCOC)C(=O)CO2 | 6.329%
- CCNC(=O)[C@@H]1C[C@H](NC(=O)c2cncnc2C)CN1CCCSC | -14.13%
- CN(C)Cc1cc(C2CCCCN2S(=O)(=O)Cc2ccccc2)nn1C.Cl (configuration not stated) | 4.184%
- Cc1noc(-c2cnc(NC(C)C)nc2-c2ccco2)c1C | 4.726%
- CC(C)n1ncc2c1NC(=O)C(C#N)C21CCCC1 (configuration not stated) | 1.001%

4 of the entries, repeated:

structure	percent effect
[H][C@@]12CCN(Cc3c(C)noc3C)[C@]1([H])CC[C@H](c1nnc(C)o1)O2	4.437
O=C(O)C(F)(F)F.[H][C@@]12CN(C(=O)c3ccco3)C[C@]1([H])C(=O)N(Cc1csc(C)n1)C2	7.407
CC(C)n1ncc2c1NC(=O)C(C#N)C21CCCC1 (configuration not stated)	1.001
COc1cccc(CN2CCCC2Cn2nc(C)nc2C)c1 (configuration not stated)	11.88